Results reported in the supplement of paper PMC11006884.
Most of the targets with a hit are listed elsewhere, so they are rarer here than in the full data. The data scatter; read single values as rough. The list shows a part of the results, in another mix than the full data.

Protein sequences, listed by entry. Tags and fused reporters are not part of them. Lines headed by an entry give the natural chain unless they say otherwise; changes in a name come on top.
UniProt Q9C0C2: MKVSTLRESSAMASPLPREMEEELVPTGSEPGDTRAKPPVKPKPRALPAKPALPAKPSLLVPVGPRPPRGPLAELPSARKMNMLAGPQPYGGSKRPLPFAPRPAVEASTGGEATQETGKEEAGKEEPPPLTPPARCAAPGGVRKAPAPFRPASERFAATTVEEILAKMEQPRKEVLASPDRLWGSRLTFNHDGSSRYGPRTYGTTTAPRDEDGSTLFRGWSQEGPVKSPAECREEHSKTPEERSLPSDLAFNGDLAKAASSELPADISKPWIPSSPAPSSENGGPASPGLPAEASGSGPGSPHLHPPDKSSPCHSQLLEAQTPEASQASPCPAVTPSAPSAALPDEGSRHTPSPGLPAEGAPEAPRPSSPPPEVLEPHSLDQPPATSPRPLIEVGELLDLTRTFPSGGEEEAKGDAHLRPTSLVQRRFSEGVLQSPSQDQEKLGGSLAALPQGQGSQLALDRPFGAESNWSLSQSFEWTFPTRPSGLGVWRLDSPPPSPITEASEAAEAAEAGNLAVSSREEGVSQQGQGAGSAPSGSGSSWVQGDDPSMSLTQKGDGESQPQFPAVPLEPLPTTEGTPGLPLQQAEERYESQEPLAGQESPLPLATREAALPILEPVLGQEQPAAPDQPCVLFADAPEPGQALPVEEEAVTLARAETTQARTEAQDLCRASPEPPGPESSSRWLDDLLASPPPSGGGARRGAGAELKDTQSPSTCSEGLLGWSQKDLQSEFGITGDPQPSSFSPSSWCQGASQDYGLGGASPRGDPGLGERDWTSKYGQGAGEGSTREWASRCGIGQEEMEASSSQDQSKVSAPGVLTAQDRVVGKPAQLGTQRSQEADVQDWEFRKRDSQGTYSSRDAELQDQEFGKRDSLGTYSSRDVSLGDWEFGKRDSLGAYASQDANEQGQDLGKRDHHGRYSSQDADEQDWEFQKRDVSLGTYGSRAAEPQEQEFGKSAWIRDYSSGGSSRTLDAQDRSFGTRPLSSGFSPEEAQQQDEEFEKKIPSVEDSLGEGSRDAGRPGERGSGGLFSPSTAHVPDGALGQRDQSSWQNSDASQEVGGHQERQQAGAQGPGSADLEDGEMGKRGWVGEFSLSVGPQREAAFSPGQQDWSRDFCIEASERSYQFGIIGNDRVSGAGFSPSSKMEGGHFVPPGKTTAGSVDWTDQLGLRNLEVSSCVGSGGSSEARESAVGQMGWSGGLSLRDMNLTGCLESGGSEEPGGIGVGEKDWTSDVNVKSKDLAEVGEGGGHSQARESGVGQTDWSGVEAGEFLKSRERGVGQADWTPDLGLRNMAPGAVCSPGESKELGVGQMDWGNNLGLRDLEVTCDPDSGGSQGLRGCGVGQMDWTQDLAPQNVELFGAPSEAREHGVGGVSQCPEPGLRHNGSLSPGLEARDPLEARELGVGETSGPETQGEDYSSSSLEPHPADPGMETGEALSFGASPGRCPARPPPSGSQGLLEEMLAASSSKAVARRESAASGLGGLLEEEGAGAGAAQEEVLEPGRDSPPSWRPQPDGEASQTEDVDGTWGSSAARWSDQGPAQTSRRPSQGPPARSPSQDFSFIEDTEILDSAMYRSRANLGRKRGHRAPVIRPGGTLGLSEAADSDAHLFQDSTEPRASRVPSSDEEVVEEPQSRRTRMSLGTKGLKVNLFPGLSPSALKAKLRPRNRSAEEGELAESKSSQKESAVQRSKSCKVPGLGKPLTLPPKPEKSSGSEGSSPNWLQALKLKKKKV
UniProt Q9BW19: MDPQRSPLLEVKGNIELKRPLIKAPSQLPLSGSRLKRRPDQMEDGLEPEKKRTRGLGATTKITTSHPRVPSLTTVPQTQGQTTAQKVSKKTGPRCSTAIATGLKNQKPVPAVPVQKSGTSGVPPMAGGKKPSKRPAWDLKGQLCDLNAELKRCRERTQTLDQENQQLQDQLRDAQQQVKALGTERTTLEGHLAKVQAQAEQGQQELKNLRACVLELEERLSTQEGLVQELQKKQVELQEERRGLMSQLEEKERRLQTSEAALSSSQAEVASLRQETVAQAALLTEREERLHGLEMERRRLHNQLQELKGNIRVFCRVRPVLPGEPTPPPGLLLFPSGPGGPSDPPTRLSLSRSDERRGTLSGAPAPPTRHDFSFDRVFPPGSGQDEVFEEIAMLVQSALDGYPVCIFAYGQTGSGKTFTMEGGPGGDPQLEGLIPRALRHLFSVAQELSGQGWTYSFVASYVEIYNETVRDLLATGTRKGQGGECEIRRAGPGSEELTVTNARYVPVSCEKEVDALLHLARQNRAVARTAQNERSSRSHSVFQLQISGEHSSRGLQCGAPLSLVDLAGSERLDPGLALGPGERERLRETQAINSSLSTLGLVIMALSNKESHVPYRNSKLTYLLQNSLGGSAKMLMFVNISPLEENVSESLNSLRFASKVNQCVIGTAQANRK
UniProt Q9BYG3: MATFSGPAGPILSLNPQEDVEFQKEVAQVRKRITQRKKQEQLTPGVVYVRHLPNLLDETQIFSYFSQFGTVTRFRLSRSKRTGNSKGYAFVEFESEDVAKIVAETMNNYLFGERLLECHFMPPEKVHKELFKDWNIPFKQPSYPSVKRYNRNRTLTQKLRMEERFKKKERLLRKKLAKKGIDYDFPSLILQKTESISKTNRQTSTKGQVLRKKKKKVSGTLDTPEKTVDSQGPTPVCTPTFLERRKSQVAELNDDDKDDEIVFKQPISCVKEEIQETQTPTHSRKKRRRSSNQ
UniProt Q9BRA2: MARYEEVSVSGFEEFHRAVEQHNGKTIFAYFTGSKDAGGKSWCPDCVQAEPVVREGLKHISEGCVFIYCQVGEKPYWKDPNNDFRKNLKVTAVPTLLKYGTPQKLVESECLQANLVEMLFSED
UniProt Q9BTW9: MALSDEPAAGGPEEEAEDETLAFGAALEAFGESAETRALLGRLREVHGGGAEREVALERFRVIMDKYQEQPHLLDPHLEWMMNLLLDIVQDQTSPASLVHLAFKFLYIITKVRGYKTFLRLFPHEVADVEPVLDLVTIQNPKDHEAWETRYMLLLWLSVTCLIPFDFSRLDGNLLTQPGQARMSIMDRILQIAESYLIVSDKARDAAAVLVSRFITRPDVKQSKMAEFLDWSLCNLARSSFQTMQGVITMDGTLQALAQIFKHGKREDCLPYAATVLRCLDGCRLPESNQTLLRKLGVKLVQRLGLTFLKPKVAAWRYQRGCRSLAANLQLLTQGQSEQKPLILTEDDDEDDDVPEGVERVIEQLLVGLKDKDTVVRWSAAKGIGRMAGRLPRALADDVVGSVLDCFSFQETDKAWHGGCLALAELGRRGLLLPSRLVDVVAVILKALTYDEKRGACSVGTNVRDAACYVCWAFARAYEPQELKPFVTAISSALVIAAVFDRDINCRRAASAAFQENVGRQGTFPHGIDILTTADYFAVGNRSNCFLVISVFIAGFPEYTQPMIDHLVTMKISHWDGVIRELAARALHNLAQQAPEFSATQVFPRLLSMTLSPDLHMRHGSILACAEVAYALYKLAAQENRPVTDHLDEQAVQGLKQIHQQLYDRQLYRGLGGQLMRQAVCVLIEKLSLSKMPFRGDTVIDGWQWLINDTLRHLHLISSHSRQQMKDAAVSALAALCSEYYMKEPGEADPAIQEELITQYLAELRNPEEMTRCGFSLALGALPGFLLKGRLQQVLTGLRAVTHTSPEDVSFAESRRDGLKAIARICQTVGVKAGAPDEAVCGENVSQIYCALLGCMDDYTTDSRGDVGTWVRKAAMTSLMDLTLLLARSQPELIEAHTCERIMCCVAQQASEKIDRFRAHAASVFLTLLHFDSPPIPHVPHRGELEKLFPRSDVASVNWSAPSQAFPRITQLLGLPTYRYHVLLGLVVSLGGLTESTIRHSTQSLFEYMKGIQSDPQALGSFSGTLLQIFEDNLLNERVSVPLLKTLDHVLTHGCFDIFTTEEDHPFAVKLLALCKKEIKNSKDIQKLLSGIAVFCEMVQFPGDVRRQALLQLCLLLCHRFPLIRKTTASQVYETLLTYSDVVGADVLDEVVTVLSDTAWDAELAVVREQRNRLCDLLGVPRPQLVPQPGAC
UniProt Q9BYW2: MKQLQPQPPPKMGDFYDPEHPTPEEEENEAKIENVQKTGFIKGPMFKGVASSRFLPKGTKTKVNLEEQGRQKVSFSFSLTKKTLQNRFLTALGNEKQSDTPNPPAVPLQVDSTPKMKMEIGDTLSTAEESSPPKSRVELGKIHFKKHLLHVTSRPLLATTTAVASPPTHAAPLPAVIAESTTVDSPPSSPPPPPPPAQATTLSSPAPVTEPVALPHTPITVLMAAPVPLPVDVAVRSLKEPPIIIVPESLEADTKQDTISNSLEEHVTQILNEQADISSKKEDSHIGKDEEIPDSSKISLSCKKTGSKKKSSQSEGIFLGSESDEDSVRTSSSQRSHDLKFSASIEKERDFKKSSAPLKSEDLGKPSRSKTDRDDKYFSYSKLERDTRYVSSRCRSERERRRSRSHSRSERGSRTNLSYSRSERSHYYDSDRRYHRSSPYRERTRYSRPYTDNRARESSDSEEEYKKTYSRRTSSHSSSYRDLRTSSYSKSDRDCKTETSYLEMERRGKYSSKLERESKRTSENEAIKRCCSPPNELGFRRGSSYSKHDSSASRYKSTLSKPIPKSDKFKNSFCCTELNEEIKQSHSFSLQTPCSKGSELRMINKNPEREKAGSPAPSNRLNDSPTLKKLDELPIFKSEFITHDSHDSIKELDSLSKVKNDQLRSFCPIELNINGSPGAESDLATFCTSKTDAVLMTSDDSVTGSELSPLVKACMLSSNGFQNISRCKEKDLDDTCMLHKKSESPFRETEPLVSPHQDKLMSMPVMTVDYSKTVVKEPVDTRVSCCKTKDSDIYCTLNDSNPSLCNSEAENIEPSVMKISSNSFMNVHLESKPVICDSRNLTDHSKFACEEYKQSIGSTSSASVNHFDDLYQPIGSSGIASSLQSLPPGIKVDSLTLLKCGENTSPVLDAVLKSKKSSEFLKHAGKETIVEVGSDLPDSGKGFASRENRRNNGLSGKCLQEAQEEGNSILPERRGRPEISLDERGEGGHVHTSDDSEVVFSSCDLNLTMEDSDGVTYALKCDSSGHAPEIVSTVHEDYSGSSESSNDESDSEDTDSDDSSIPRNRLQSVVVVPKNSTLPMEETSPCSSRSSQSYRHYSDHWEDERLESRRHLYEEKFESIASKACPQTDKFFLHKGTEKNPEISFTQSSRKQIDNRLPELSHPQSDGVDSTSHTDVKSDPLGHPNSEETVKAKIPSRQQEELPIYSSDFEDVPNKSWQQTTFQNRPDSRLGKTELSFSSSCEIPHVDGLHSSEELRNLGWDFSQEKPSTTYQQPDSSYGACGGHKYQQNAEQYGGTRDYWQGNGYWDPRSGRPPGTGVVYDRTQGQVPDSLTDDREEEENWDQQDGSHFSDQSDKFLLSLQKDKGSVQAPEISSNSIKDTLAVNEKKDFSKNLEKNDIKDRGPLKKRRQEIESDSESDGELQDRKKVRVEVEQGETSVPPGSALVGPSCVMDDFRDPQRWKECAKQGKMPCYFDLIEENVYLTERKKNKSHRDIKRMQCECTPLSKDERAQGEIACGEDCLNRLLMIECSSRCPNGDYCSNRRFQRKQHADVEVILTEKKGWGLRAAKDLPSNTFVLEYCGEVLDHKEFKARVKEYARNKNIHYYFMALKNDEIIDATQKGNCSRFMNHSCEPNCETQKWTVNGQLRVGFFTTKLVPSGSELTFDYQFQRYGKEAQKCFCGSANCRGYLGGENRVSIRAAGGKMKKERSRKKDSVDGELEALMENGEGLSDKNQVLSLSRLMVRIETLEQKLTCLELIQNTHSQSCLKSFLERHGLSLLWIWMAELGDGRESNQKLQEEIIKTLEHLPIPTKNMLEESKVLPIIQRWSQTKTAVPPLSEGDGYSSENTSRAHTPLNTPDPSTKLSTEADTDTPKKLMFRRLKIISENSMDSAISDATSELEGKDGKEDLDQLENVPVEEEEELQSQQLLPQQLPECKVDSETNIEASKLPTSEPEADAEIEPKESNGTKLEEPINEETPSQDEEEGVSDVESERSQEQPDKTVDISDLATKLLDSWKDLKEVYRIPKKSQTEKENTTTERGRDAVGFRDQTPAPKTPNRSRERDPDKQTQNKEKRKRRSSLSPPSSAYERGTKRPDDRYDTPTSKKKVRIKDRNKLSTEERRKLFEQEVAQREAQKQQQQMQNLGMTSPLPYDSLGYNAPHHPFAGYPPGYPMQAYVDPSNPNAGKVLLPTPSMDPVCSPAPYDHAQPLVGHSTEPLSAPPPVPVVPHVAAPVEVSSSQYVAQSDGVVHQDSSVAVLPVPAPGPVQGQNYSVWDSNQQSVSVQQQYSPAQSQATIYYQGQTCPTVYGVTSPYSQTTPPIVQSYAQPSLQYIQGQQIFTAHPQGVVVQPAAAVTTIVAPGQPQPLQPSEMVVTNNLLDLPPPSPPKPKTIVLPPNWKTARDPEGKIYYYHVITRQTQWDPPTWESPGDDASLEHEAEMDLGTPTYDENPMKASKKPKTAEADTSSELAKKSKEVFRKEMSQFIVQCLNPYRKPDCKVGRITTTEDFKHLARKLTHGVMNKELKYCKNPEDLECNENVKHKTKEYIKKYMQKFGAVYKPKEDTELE

Each target was assayed with COC(=O)/C=C/c1ccccc1 [methyl cinnamate] (assay: log2 ratio of iodoacetamide-alkyne labeling of the cysteine site, DMSO over compound (competition); higher = stronger covalent engagement of the cysteine by the compound, active = 1 or more). Conditions: 500 µM; treatment time 1 h; system: HEK293T cell lysate.
How it was run: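 Reporter intensities give each cysteine's log2 competition ratio as the mean of control channels over the mean of compound channels. The samples were HEK293T lysate (2 mg/mL) given vehicle or electrophile (500 µM, 1 h, ambient temperature), then iodoacetamide alkyne (1 h), followed by click coupling to sCIP-TMT reagents, pooling, trypsin digestion overnight at 37 °C, streptavidin enrichment, acid elution, Orbitrap Eclipse LC-MS/MS with FAIMS and FragPipe quantification. Duplicate channels and three replicates were run, and cysteines quantified in only one replicate were discarded.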

log2 ratio of iodoacetamide-alkyne labeling, inactive:
SLC4A1AP C730 (UniProt Q9BWU0) 0.47
UCK2 C241 (UniProt Q9BZX2) 0.278
TNKS1BP1 C136 (UniProt Q9C0C2) 0.386
UniProt Q9BSH4_C112 -0.149
KIFC1 C212 (UniProt Q9BW19) 0.152
SLC12A9 C911 (UniProt Q9BXP2) -0.019
UniProt Q9BYG3_C237 0.454
UniProt Q9BVL4_C629 0.193
HNRNPUL1 C487 (UniProt Q9BUJ2) -0.065
PELO C218 (UniProt Q9BRX2) 0.332
AMBRA1 C571 (UniProt Q9C0C7) -0.0346
TXNDC17 C43 (UniProt Q9BRA2) 0.916
EGLN1 C127 (UniProt Q9GZT9) 0.44
ACAT2 C65 (UniProt Q9BWD1) -0.087
TNKS1BP1 C794 (UniProt Q9C0C2) 0.335
UniProt Q9BYG3_C269 0.367
TBCD C234 (UniProt Q9BTW9) 0.0302
UTP23 C207 (UniProt Q9BRU9) 0.057
PRKD2 C861 (UniProt Q9BZL6) 0.0312
VPS11 C890 (UniProt Q9H270) 0.222
TUBB6 C12 (UniProt Q9BUF5) -0.209
UniProt Q9GZT3_C48 0.00622
NOC4L C509 (UniProt Q9BVI4) 0.176
ISCU C95 (UniProt Q9H1K1) 0.222
SETD2 C900 (UniProt Q9BYW2) 0.128
LZTS2 C376 (UniProt Q9BRK4) 0.179
PELO C204 (UniProt Q9BRX2) 0.248
MRPL20 C93 (UniProt Q9BYC9) 0.198
UniProt Q9BV86_C195 0.188
GINS3 C188 (UniProt Q9BRX5) 0.0738
NSD3 C1184 (UniProt Q9BZ95) 0.123
MRPL1 C279 (UniProt Q9BYD6) 0.106
UniProt Q9BXP5_C441 0.111
WDR18 C384 (UniProt Q9BV38) 0.288
TNKS1BP1 C1324 (UniProt Q9C0C2) 0.45
EDEM3 C82 (UniProt Q9BZQ6) 0.0451
UTP14A C522 (UniProt Q9BVJ6) 0.132

Reprinted from the listing (2 entries):
log2 ratio of iodoacetamide-alkyne labeling, inactive:
UniProt Q9BYG3_C237 0.454
UniProt Q9BVL4_C629 0.193
